Data as given in PubChem BioAssay AID1439 (NMMLSC, 2008).
In all, about 220,000 compounds went through this assay and about 770 (0.35%) were called active. Inconclusive means that the source gave no clear call. Such entries were picked first, then a sample of the others. No stated cut-off is given here; in the data, active means binding response below about 49% or above about 150%; inconclusive means no clear call, values can overlap the other calls; inactive means in between.

Amino acid sequences for entries named in this document (tags omitted).
UniProt P09471, whole entry, looked up: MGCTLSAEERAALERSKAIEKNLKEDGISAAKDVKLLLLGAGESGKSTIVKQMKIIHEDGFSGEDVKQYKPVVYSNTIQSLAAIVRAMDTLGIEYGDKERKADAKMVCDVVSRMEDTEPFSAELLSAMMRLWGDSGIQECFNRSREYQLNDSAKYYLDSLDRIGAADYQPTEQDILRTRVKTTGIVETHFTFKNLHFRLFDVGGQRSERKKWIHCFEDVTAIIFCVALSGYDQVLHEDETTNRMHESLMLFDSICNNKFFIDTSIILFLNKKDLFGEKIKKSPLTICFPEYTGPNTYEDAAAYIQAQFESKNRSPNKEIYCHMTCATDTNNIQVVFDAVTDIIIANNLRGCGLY

The molecules below were run against Guanine nucleotide-binding protein G(o) subunit alpha (Homo sapiens) (UniProt P09471) (assay: RGS7-Galphao binding modulators, primary screen, biochemical, multiplexed bead flow cytometry (AID 1439;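 further: fluorescent Galphao held in activated GDP-AlF4 state binding bead-coupled RGS7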)). Details: at 10 µM, actives lie on both sides.

Row | Structure (SMILES) | binding response (% of control)
1 | CC[C@]1(O)C[C@@H]2CN(CCc3c([nH]c4ccccc34)[C@@](C(=O)OC)(c3cc4c(cc3OC)N(C)[C@H]3[C@@](O)(C(=O)OC)[C@H](OC(C)=O)[C@]5(CC)C=CCN6CC[C@]43[C@@H]65)C2)C1 | inconclusive: 68.1%
2 | COc1ccc(/C(C)=N/N=C2/NC(=O)CC(C(=O)O)S2)cc1F (centres undefined) | inconclusive: 96.3%
3 | CNC(=O)COC(=O)COc1ccc2c(C)cc(=O)oc2c1 | inconclusive: 112%
4 | O=C(O)c1cccc2c1C(=O)c1ccccc1-2 | inconclusive: 128%
5 | CC1CCC(NC(=O)C(Cc2ccccc2)n2cccc2)CC1 (centres undefined) | inconclusive: 113%
6 | Cc1oc2cc(OCc3cnn(-c4ccccc4)c3)ccc2c(=O)c1Oc1ccccc1F | inactive: 98.2%
7 | CC(C)NC(=O)CSc1nnc(-c2ccc3ncccc3c2)n1C | inconclusive: 103%
8 | Cc1cccc2nc3ccccc3nc12 | inconclusive: 116%
9 | CCc1ccc(NC(=O)CN2CCc3ccccc3C2)cc1 | inactive: 102%
10 | CCn1c(SCc2cccc(C(F)(F)F)c2)nnc1-c1ccco1 | active: 42.2%
11 | N#C/C(=C\Nc1ccccn1)S(=O)(=O)c1ccc(Cl)cc1 | inconclusive: 184%
12 | COCCCn1cnnc1SCc1nc2sc(C(C)=O)c(C)c2c(=O)[nH]1 | inconclusive: 97.7%
13 | CC(C)(C)c1nnc2sc(SC/C(O)=C(\C#N)c3nc4ccccc4[nH]3)nn2c1=O | active: 161% [activator]
14 | CC(C)c1nnc(NC(=O)C2CCCN2C(=O)Nc2ccccc2F)s1 (centres undefined) | inconclusive: 98.4%
15 | CN(Cc1ccccc1)C(=O)N1CCOCC1 | inconclusive: 99.5%
16 | CC(C)(C)NC(=O)CN(C(=O)C(=O)Nc1ccc2c(c1)OCCO2)C(C)(C)C | inconclusive: 101%
17 | COc1ccc(CCNC(=O)c2ccc(=O)[nH]n2)cc1OC | inactive: 103%
18 | O=C(O)c1cccc(COc2ccc3c(c2)CCC3)c1 | inconclusive: 78.9%
19 | O=C(Nc1ccc(S(=O)(=O)N2CCOCC2)cc1)c1ccc([N+](=O)[O-])o1 | inconclusive: 62.8%
20 | Cc1ccc(-n2c(CNC(=O)c3cccs3)nnc2SCC(=O)NO)cc1 | inactive: 92.1%
21 | CCN(CC)CC(=O)NN(Cc1ccccc1)c1ccccc1 | inconclusive: 101%
22 | COc1ccc(-n2cc(C#N)c(=O)n(Cc3ccc(F)cc3)c2=O)cc1 | inconclusive: 102%
23 | Cc1ccc(C(=O)Nc2ccc(N3CCOCC3)nc2N2CCOCC2)cc1 | inconclusive: 100%
24 | CC(C)CCCC(C)CCOC(=O)CN1CCCC1 (centres undefined) | inconclusive: 96.2%

Given comma-delimited: part of the list above.
Row,Structure (SMILES),binding response (% of control)
1,CC[C@]1(O)C[C@@H]2CN(CCc3c([nH]c4ccccc34)[C@@](C(=O)OC)(c3cc4c(cc3OC)N(C)[C@H]3[C@@](O)(C(=O)OC)[C@H](OC(C)=O)[C@]5(CC)C=CCN6CC[C@]43[C@@H]65)C2)C1,inconclusive: 68.1%
2,COc1ccc(/C(C)=N/N=C2/NC(=O)CC(C(=O)O)S2)cc1F (centres undefined),inconclusive: 96.3%
